Assay results taken from article PMC10163288.
Some of the results follow.

B1: il10ra_site1_sap_16_mot_HHH_b1_06914_000000280_0001_1_18_H_._HHH_b1_06848_0001_0000100006_0000001_0_0001_af2pred_dldesign_0_af2pred (protein)
chain: SSSSSDLVATLKRHIANAKELYERGYPEEAKRALEYALAEARALGLEELEAEIEKLLEELSSSSS
B2: il10ra_site1_normal_mot_HHH_b1_05056_000000217_0001_1_20_H_._HHH_b2_07648_af2_0001_0000800026_0000001_0 (protein)
chain: SSSSSEVEEEVRKILEEAEELAEEGDPRKVARVLQEALRVALENSDQEALRLVWKVVKELTSSSS
B3: il10ra_site1_normal_mot_HHH_b2_03434_000000017_0001_1_19_H_._HHH_b1_03692_0001_0000100001_0000001_0 (protein)
chain: SSSSDEAYELVREAIEEVSELEREGNEEEARELARELIELLEELGNLNMLANAEHLLRLLESSSS
B4: il10ra_site1_normal_mot_HHH_b2_08186_000000021_0001_43_56_H_._HHH_b2_06107_0001_0000300018_0000001_0 (protein)
chain: SSSSSSSDAEEEVEELLEEAKHVDREEAMRLAIEALELAYRSRNPELLQLIWRVLKELSSSSSSS
B5: il10ra_site1_sap_33_mot_HHH_b2_05343_000000235_0001_19_35_H_._HHH_b1_03268_0001_0000300049_0000002_0_0001_af2pred_0001 (protein)
chain: SSSSSDAEDLAKKAIEIAEELEEEGNPELARISLRNAALAAKDRNDEEALEEIEKVLEELSSSSS
B6: il10ra_site1_normal_mot_05ca327611f5605f0dd8494b449afcbf_0001_1_000000248_0001_35_51_H_._HHH_b2_04947_af2_0001_0000300008_0000001_0 (protein)
chain: SSSSDAEVVQEVQELIREAAELIRNGDPEEAEEVLEEARRLAEELNNPILRFAVRAIAQALSSSS
B7: il10ra_site1_normal_mot_HHH_b2_07579_000000275_0001_1_19_H_._HHH_b1_05919_af2_0001_0000100002_0000002_0 (protein)
chain: SSSSSDEAYEAARRMAELLHRYEREGDERYREEIERLLEEIEELGNEVVLWSARHILRDVSSSSS
B8: il10ra_site1_normal_mot_HHH_b1_02665_000000293_0001_1_18_H_._HHH_b1_06547_0001_0000600033_0000002_0 (protein)
chain: SSSSDEEVRELVKEAEELAEELGDRNILFLLKQVLKLAEELGDPKLFERLHQLAEIFLRQNSSSS
B9: il10ra_site1_normal_mot_HHH_b2_03220_af2_000000223_0001_23_40_H_._HHH_b1_08445_0001_0000200024_0000002_0 (protein)
chain: SSSSSEEVWELLRKALELLADGNPEEARKVLEEAEELAEEENNENLKFAIRHLHRAIEDLSSSSS
B10: il10ra_site1_sap_20_mot_ems_3hM_235_000000244_0001_46_64_H_._67e1e90ad417e81182229281e7547621_0001_0001_0000500018_0000001_0_0001_af2pred_0001 (protein)
chain: SSSSSREEEALKLALRFLEFAIREGSERSAKILIKAIRELVEKSNNEEAEEELERLERELKSSSS
B11: il10ra_site1_normal_mot_HHH_b1_05056_000000217_0001_1_20_H_._HHH_b1_07279_0001_0000500040_0000001_0 (protein)
chain: SSSSSDEEEVRELLEEAEELARRGNPREASRVLLRALRIIYEANNPELLRELWEVVRRVASSSSS
B12: il10ra_site1_sap_23_mot_HHH_b1_06798_000000292_0001_1_19_H_._HHH_b1_01501_0001_0000100001_0000001_0_0001 (protein)
chain: SSSSDVEEEVEELLEEAKRVYEEGDDHKAAEILAKAMRLAYEAGDAELMRKVQRLSMRLLSSSSS
B13: il10ra_site1_sap_17_mot_HHH_b2_00076_000000055_0001_40_55_H_._HHH_b1_07763_af2_0001_0000100002_0000002_0_0001_af2pred_0001 (protein)
chain: SSSSDLEEEVRELLEEAKRIEDPEEVRELLREAAAIAARARDPELSYLILRVFAELTKERSSSSS
B14: il10ra_site1_normal_mot_HHH_b2_05813_000000266_0001_1_19_H_._HHH_b1_02254_0001_0000200018_0000001_0 (protein)
chain: SSSSSDEEERVFQLLVRLQRLLDEGDEERLRELLEEAKELAEELNDPVLRRAIEIIEELGSSSSS
B15: il10ra_site1_sap_20_mot_ems_3hC_416_0001_000000048_0001_1_19_H_._HHH_b1_02452_af2_0001_0000100004_0000002_0_0001 (protein)
chain: SSSSSSDEAQRIFELIEEAMQIEDPEEAQELLEEALELAEELNSWNLRVNVEYALEMLSSSSSSS
B16: il10ra_site1_normal_mot_HHH_b2_06142_af2_000000101_0001_1_18_H_._HHH_b1_07925_af2_0001_0000100002_0000002_0_af2pred_0001 (protein)
chain: SSSSDEEVKKETLKVQLEALRLLRNGNPEEARKVLEEAFEYLEELGNRRALEAVELLLEEISSSS
B17: il10ra_site1_normal_mot_HHH_b2_06142_af2_000000101_0001_1_18_H_._HHH_b2_00532_0001_0000100002_0000001_0_af2pred_dldesign_0_af2pred (protein)
chain: SSSSSTPEAEAALKEAALAMSIATKEEQKELFDLLVEFHKTRDPEVLERLRELIERIKAKSSSSS
B18: il10ra_site1_sap_25_mot_HHH_b2_02022_af2_000000170_0001_1_16_H_._dddd11d5de81826a7497a0a2545a4374_0001_1_af2_0001_0000500020_0000001_0_0001 (protein)
chain: SSSSDEVYEIARRAAEELLELIERGDDEEAEKVLEEARRELEELGSELAVRVLEWFFRRQRSSSS
B19: il10ra_site1_sap_26_mot_HHH_b2_07145_000000158_0001_24_40_H_._HHH_b1_04845_af2_0001_0000600034_0000001_0_0001 (protein)
chain: SSSSDEERERLVELLREVFRLLLRGDPERARELLEEAQEIAEELGDEQAKFALRDLEQAVNSSSS
B20: il10ra_site1_sap_17_mot_HHH_b1_02062_000000185_0001_1_20_H_._HHH_b2_03390_0001_0000100002_0000003_0_0001 (protein)
chain: SSSSSSEYEEEIRELLEEAKHIEDADEVYRLLEEAIKLATQANDPELAKLVMEVLREWLHSSSSS
B21: il10ra_site1_sap_16_mot_HHH_b2_06321_af2_000000133_0001_42_55_H_._HHH_b2_01905_0001_0000200026_0000001_0_0001 (protein)
chain: SSSSSDRRRQIYELLRRVVELDLEGNEEEARELLEEARELAEEANDRVMQEVIKHLERQLSSSSS
B22: il10ra_site1_normal_mot_HHH_b1_05357_000000034_0001_23_39_H_._HHH_b2_08306_af2_0001_0000300010_0000002_0 (protein)
chain: SSSSSSEEEYKERVEELLEEAKKIEDRARVSHILIRAYAIAHELGDEELREEITKVAQELSSSSS
B23: il10ra_site1_sap_25_mot_HHH_b1_05357_000000034_0001_23_39_H_._HHH_b2_00731_0001_0000300016_0000001_0_0001_af2pred_0001 (protein)
chain: SSSSDEEVKRALRFAKWLAEQGDREAVEFFLKWAKQLAERLGDEELEELIKEVEEEVQKLLSSSS
B24: il10ra_site1_sap_15_mot_HHH_b2_01205_000000166_0001_1_19_H_._71be647701ff1b2f9c0375d933d1ad3f_0001_0001_0000600024_0000001_0_0001 (protein)
chain: SSSSDETQELYELMEKLAKATHEGDKELVEELYEEARELAEELNNRLARIQIEFAFKRAHSSSSS
B25: il10ra_site1_normal_mot_HHH_b2_00943_af2_000000149_0001_1_17_H_._HHH_b2_00163_af2_0001_0000400008_0000001_1 (protein)
chain: SSSSDEEEEELRRLAEEAIRVAEELGDPNLAFLVRQALKALEIAGDEHAREILENLLKQILSSSS
B26: il10ra_site1_sap_23_mot_HHH_b2_02267_000000141_0001_1_20_H_._ems_3hC_501_0001_0001_0000100001_0000001_0_0001_af2pred_0001 (protein)
chain: SSSSDEEKEALQLAAEASALAIRRGDEETLERLLRLQVRLYREGDPELAKELEKLAEEVLSSSSS
B27: il10ra_site1_sap_24_mot_HHH_b2_03183_af2_000000055_0001_40_56_H_._HHH_b2_05012_0001_0000200012_0000001_0_0001 (protein)
chain: SSSSSSSFREAYELVEEAFEIEDPEEVQELLERALELAEENNNWVLFFSIRHALEAERSSSSSSS
B28: il10ra_site1_normal_mot_HHH_b1_02492_000000051_0001_1_21_H_._HHH_b1_08445_0001_0000100002_0000002_0 (protein)
chain: SSSSSDEVYELLRKAIELLRDGNPEEAEKVLEEAEELARELNNEVLEVQIEFLKRLIERNSSSSS
B29: il10ra_site1_normal_mot_HHH_b1_00814_af2_000000078_0001_43_57_H_._HHH_b1_00467_0001_0000400018_0000001_0_af2pred_0001 (protein)
chain: SSSSSDEEVEERIEELSEEAKHVDAETAFELLKEMAELAKEVNDPELEQFVKEVAAELISSSSSS
B30: il10ra_site1_normal_mot_HHH_b1_05056_000000217_0001_1_20_H_._HHH_b1_06255_af2_0001_0000400025_0000001_0_af2pred_0001 (protein)
chain: SSSSSEEEQRVKELLEEIRELLEEGDYREALRLLIEAAKIAAEIDNKELLQIIFELLRRVGSSSS
B31: il10ra_site1_sap_18_mot_HHH_b2_08144_af2_000000046_0001_38_52_H_._HHH_b2_07064_af2_0001_0000200009_0000002_0_0001 (protein)
chain: SSSSSSDINELAQEAIHLAIQRGDEEVLREIWRLVHEYGKEGDPRYREELEELLEELRSSSSSSS
B32: il10ra_site1_sap_18_mot_HHH_b1_02464_000000069_0001_1_19_H_._HHH_b1_02930_0001_0000700049_0000001_0_0001 (protein)
chain: SSSSSQEEQHARAVLWFAEAALRDGDPHAARKMLEYAEELAEELGDEELLEKIQRLLKEVNSSSS
B33: il10ra_site1_sap_17_mot_HHH_b2_02053_af2_000000006_0001_3_19_H_._HHH_b2_05903_0001_0000100004_0000001_0_0001 (protein)
chain: SSSSDEKERLEELEERVEELIEEGDREEVLRVLFELVRVAFRLNDPEALRRAWELLKRVASSSSS
B34: il10ra_site1_sap_18_mot_HHH_b2_03220_af2_000000223_0001_23_40_H_._HHH_b1_01656_0001_0000800049_0000001_0_0001 (protein)
chain: SSSSSSDAAHLQQEALRAAFQNSDEETLRQLDELYRRIVEEGDPRLEEELEELLEELRSSSSSSS
B35: il10ra_site1_sap_17_mot_HHH_b2_00134_af2_000000008_0001_38_52_H_._HHH_b2_08161_0001_0000600031_0000002_0_0001_af2pred_0001 (protein)
chain: SSDEEIREHAEEVSEEAKELVKKNPEEARKAVAELFMEAAENNDEELLRAAAEVYQEVFKYIKSS
B36: il10ra_site1_normal_mot_2c1a291787c6f40772924d4e9068d803_0001_af2_000000187_0001_34_48_H_._ems_3hM_441_0001_0000400013_0000001_0_af2pred_0001 (protein)
chain: DEELRERIAKLFWLLSKLLKDDPELAKRVFQIAARAIRAVNNGDEKLAEELVEELEELVRKLSSS
B37: il10ra_site1_sap_24_mot_HHH_b1_01879_000000050_0001_1_18_H_._HHH_b1_04021_0001_0000100001_0000001_0_0001 (protein)
chain: SSSSSSDREEEVEELLEEAKEVPDPRERTRILLEALRIAIQASDPELLRLVWRVVKELSSSSSSS

Target: il10ra, Q13651
Test: yeast display titration

Apparent Kd, inactive:
B1 no binding seen, B2 no binding seen, B3 no binding seen, B4 no binding seen, B5 no binding seen, B6 no binding seen, B7 no binding seen, B8 no binding seen, B9 no binding seen, B10 no binding seen, B11 no binding seen, B12 no binding seen, B13 no binding seen, B14 no binding seen, B15 no binding seen, B16 no binding seen, B17 no binding seen, B18 no binding seen, B19 no binding seen, B20 no binding seen, B21 no binding seen, B22 no binding seen, B23 no binding seen, B24 no binding seen, B25 no binding seen, B26 no binding seen, B27 no binding seen, B28 no binding seen, B29 no binding seen, B30 no binding seen, B31 no binding seen, B32 no binding seen, B33 no binding seen, B34 no binding seen, B35 no binding seen, B36 no binding seen, B37 no binding seen
